# Test results reported in PubChem BioAssay AID1259354 (Paczesny and Yang Labs, IUPUI and University of Michigan, 2018).
# By UniProt entry, the sequences of proteins in these tests, tags left out. Where a name states a change or a piece, a line headed by the entry shows the natural chain unless it says otherwise.
# UniProt Q01638: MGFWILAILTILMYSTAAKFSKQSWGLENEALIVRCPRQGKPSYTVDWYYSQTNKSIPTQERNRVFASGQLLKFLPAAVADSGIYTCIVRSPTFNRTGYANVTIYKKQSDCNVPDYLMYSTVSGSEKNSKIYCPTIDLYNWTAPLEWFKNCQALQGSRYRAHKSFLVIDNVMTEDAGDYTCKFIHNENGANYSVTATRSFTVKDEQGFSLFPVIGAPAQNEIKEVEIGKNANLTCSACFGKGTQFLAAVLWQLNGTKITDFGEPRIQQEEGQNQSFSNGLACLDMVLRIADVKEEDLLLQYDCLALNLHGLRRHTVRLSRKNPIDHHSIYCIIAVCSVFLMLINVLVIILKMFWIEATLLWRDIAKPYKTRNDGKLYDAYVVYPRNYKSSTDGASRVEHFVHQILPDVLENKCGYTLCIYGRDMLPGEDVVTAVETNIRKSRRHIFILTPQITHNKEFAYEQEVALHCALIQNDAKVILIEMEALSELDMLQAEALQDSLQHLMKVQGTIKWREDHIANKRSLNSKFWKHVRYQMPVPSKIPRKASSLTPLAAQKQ
# Where “and” joins values, the source holds several entries; their conditions need not be identical. Identical values can stand only once. Screen size: about 78,000 compounds; about 1,800 (2.3%) were called active. The shares of active, inactive and inconclusive entries below differ from those in the screen. Cut-off read from the data, not from the text of the source: active = inhibition above about 30%; inconclusive = mostly about 10% to 28%; inactive = weaker than that. Some compounds were tested as several samples or in several runs, with calls that do not always agree.
# Target: Interleukin-1 receptor-like 1 (Homo sapiens) (UniProt Q01638)
# Test: blocks human ST2 binding to IL-33, primary screen, biochemical, AlphaLISA (AID 1259354)
# Conditions: AlphaLISA ST2-Fc/biotin-IL-33 interaction, 1 h; at 17 µM, stronger effect = higher value
row,Compound,inhibition
1,COc1ccc2cc3cc(C(=O)N4CCC(C(N)=O)CC4)oc3nc2c1,inconclusive: 10%
2,O=C(Nc1ccc(S(=O)(=O)N2CCCC2)cc1)C1CC1,inactive
3,CCN1CCCCC1C(=O)N(C)CC1CCN(CCc2ccccc2F)CC1 (stereo not drawn),inconclusive: 13%
4,CC1=C(C(=O)Nc2ccccc2)C(c2cccc(Br)c2)n2nnnc2N1 (stereo not drawn),inactive
5,O=S(=O)(NC1CCCC1)c1cccc2cccnc12,inconclusive: 11%
6,CC(C)N1CCCN(c2nc(-c3cccnc3)nc3c2cnn3C)CC1,inactive
7,N#Cc1c(N)nc2sc(C(=O)Nc3ccccc3)c(N)c2c1-c1cccs1,inconclusive: 16%
8,CSc1cccc(CN(C)C(=O)c2ccc(CO)o2)c1,inconclusive: 17%
9,CCCCCCC/C=C/C=C/C(=O)NCCc1ccc(O)cc1,inconclusive: 11%
10,COCc1nc(CN2CCC(N3CCCC3=O)CC2)no1,inconclusive: 19%
11,Nc1ccc(Oc2ccc3c(c2)C(=O)N(CCO)C3=O)cc1,inactive
12,O=C(c1cc(F)c(F)cc1Cl)N1CCN(c2c(Cl)cccc2[N+](=O)[O-])CC1,inconclusive: 16%
13,Cc1ccnc(SCCn2c(N3CCCC(C)C3)nc3c2c(=O)[nH]c(=O)n3C)n1 (stereo not drawn),inactive
14,CC(C)NC(=O)N[C@H]1C[C@@H](c2nc(-c3ccc(Cl)cc3)no2)N(C)C1,inconclusive: 12%
15,O=C(NCc1ccc2c(c1)OCO2)c1cc(-c2ccncc2)nc2ccccc12,inconclusive: 15%
16,CC(=O)N(C1=C(N2CCCCC2)C(=O)c2ccccc2C1=O)c1cccc(Cl)c1,active: 61%
17,O=C(Cc1c(C(=O)O)[nH]c2ccc(Cl)cc12)NCCc1ccc(Cl)cc1,inactive
18,Cc1ccc(C2CC(C(F)(F)F)n3nc(C(=O)N4CCCC4)c(Cl)c3N2)cc1 (stereo not drawn),inactive
19,COCCCNC(=O)c1cc(-c2ccc(Br)s2)nc2ccccc12,inactive
20,COc1cccc(C2=NN(C(C)=O)C3(CCCC3)O2)c1,inactive
21,CCCCC(=O)NCc1nc2cccnc2n1Cc1ccc(OC)cc1,inconclusive: 14%
22,Cc1ccc(NC(=O)c2ccc3nc4ccccc4nc3c2)cc1,inconclusive: 10%
23,O=C(Nc1ccc(Nc2ccccc2)cc1)c1ccc(Cl)cc1[N+](=O)[O-],active: 43%
24,COc1ccccc1Cn1c(CNS(=O)(=O)c2ccc(C(C)(C)C)cc2)nc2cccnc21,inconclusive: 21%

row,Compound,inhibition
1,CCn1c(C2CCCN(C/C=C/c3ccc(F)cc3)C2)n[nH]c1=O (stereo not drawn),inactive
2,O=C(CN1C(=O)c2ccccc2C1=O)NCCCn1ccnc1,inconclusive: 10%
3,O=C(NCCC(c1ccccc1)c1ccccc1)C1CC12CCN(C(=O)c1ccc[n+]([O-])c1)CC2 (stereo not drawn),active: 34%
4,CC(C)c1ccc(C2CC(c3ccc(F)cc3)Nc3ncnn32)cc1 (stereo not drawn),inconclusive: 17%
5,COCCn1c(CNC(=O)c2ccc(OC)c(OC)c2)nc2cccnc21,inactive
6,CC(C)(C)c1ccc(C(=O)Nc2ccccc2C(=O)O)o1,inconclusive: 13%
7,COc1ccccc1NC(=O)C1=C(C)Nc2ncnn2C1c1cccc([N+](=O)[O-])c1 (stereo not drawn),inactive
8,CC(C)NC(=O)c1cc(=O)[nH]c2ccc(S(=O)(=O)N3CCCC3)cc12,inactive
9,COc1cccc(NC(=O)CCC2CCN(C(=O)Cc3nonc3C)CC2)c1,inactive
10,CCOc1ccc(N)c([N+](=O)[O-])c1,inconclusive: 24%
11,CCOC(=O)C1(N(CC)CC)Sc2cc(C)ccc2NC1=O (stereo not drawn),inconclusive: 18%
12,CCOC(=O)c1cnc2c(C)c(Cl)ccc2c1Nc1ccc2c(c1)OCCO2,inconclusive: 29%
13,CC12CC(NC(=O)N1c1ccc(Cl)cc1)c1cc(Cl)ccc1O2 (stereo not drawn),inconclusive: 10%
14,COc1ccc(OC)c(C2c3cc(OC)c(OC)cc3CCN2C(C)=O)c1 (stereo not drawn),inconclusive: 18%
15,CCc1nccn1CCCN1CC(C(=O)O)CC1=O (stereo not drawn),inactive
16,O=C(c1cc2ncccn2n1)N1CCC(N2CCCC(C(=O)N3CCCC3)C2)CC1 (stereo not drawn),inconclusive: 11%
17,Cc1ccccc1C1NC(=O)NC2=C1C(=O)CCC2 (stereo not drawn),inactive
18,CCCCn1c(CN2CCC3(C=Cc4ccccc43)CC2)cnc1S(=O)(=O)CC,inconclusive: 15%
19,C#Cc1cccc(NC(=O)COc2cccc([N+](=O)[O-])c2)c1,inconclusive: 16%
20,Cc1nc2nc(SCC(=O)NCC3CCCO3)nn2c(C)c1Cc1ccccc1 (stereo not drawn),inconclusive: 16%
21,O=C(CC1Sc2ccc(C(F)(F)F)cc2NC1=O)Nc1ccc2c(c1)OCO2 (stereo not drawn),inconclusive: 14%
22,COc1cc(OC)c(-n2cc(-c3ccc(F)cc3)[nH]c2=O)cc1Cl,inconclusive: 18%
23,CCOC(=O)C1(C/C=C/c2ccccc2)CCCN(Cc2cnc(SC)nc2)C1 (stereo not drawn),inconclusive: 21%
24,Cc1nn(C(=O)Cc2ccccc2)c(C)c1Sc1ccccc1[N+](=O)[O-],inconclusive: 12%

row,Compound,inhibition
1,Cc1ccc(NC(=O)CNC(=O)Cc2c(C)[nH]c3ccccc23)c(F)c1,inconclusive: 21%
2,CCc1ccc(NC(=O)CCCn2nc(C)c([N+](=O)[O-])c2C)cc1,inconclusive: 18% and inconclusive: 16%
3,O=C(c1cccc(Cn2cccn2)c1)N1CCC2(CC1)C(=O)Nc1ccccc12,inconclusive: 14%
4,Cc1cc(C(=O)N2CC[C@H](N(C)C)C2)c2cccc(C)c2n1,inconclusive: 25%
5,COc1cc(NC(=O)COc2ccccc2[N+](=O)[O-])ccc1NC(=O)c1ccco1,inconclusive: 13%
6,CN1CCN(Cc2cn(-c3ccccc3)nc2-c2ccncc2)CC1C(=O)O (stereo not drawn),inconclusive: 16%
7,OCC1(Cc2ccccc2Cl)CCN(Cc2cccc(F)c2F)CC1,inactive
8,O=C1CSC2=NCN(c3ccc(Br)cc3)CN12,inconclusive: 19%
9,COc1ccc(OC)c(-c2[nH]nc3c2C(c2cn[nH]c2-c2ccc(F)cc2)C(C#N)=C(N)O3)c1 (stereo not drawn),inconclusive: 13%
10,Cc1cc(C)c(C#N)c(SCC(=O)c2ccccc2O)n1,inconclusive: 14%
11,CN(C)c1cc(NCCN2CCCC(C(N)=O)C2)ncn1 (stereo not drawn),inactive
12,Cc1ccccc1OCC(=O)NC1CC1,inactive
13,Cc1ccc(C2=NNC3(S2)C(=O)Nc2ccc(C)cc23)cc1 (stereo not drawn),active: 44%
14,O=c1[nH]c2nonc2nc1Nc1ccccc1,inactive
15,CCC(=O)N[C@@H]1c2ccccc2C2(CCN(C(=O)c3cnsn3)CC2)[C@H]1OCc1cccnc1,inconclusive: 12%
16,CC(C)Oc1ccc(C(O)=C2C(=O)C(=O)N(c3nccs3)C2c2ccc([N+](=O)[O-])cc2)cc1 (stereo not drawn),active: 35%
17,O=C1CCC(N2C(=O)c3ccccc3C2=O)C(=O)N1 (stereo not drawn),inconclusive: 23%
18,Cc1cc(CN2CC3(CCNCC3)CC2C(=O)O)oc1C (stereo not drawn),inconclusive: 12%
19,Cc1cc2ccccc2c(=O)n1CC(=O)NCC(=O)Nc1ccc2c(c1)OCO2,inconclusive: 12%
20,Cc1c(C(=O)NCc2ccccn2)oc2ccc(S(=O)(=O)N3CCC(C)CC3)cc12,inactive
21,O=C(NCCCc1ccccc1)c1cc2ccccn2n1,inconclusive: 15%
22,COc1ccc(OC)c(N=Cc2c(O)n(-c3ccccc3OC)c(=O)c3ccccc23)c1,inconclusive: 19%
23,CC(C)(C)NC(=O)C1CCN(S(=O)(=O)c2ccc(Cl)cc2)CC1,inactive
24,C=C(C)CN1C(=O)C2(OCCO2)c2cc(Br)ccc21,inconclusive: 15%

row,Compound,inhibition
1,COc1cc(CN2CCC3(C=Cc4ccccc43)CC2)c([N+](=O)[O-])cc1OC,inconclusive: 18%
2,COc1cccc(CC(C2CCN(C(=O)[C@H]3C[C@@H]4C=C[C@H]3C4)CC2)N(C)C(=O)CCSC)c1 (stereo partly drawn),inconclusive: 15%
3,C[C@]1(CO)[C@H]2Cc3sc(-c4ccsc4)nc3[C@@H](CC(=O)Nc3nccs3)[C@]2(C)CC[C@H]1O,inconclusive: 10%
4,Cn1nc(-c2ccccn2)c2c1NC(=O)CC2c1cccc2nsnc12 (stereo not drawn),inconclusive: 13%
5,N#Cc1c(-c2ccc(F)cc2)cc(-c2cccs2)nc1SCC(N)=O,inactive
6,Cc1ccnc(C(NCc2nc(-c3ccco3)no2)C2CC2)c1 (stereo not drawn),inactive
7,C=C1C(=O)OC2/C=C(\COC(C)=O)CC/C=C(/C=O)CC(OC(=O)C(C)CC)C12 (stereo not drawn),inactive
8,Cc1ccc(OCCN(C)C(=O)C2CCC(=O)N(Cc3ccccn3)C2)cc1 (stereo not drawn),inactive
9,O=[N+]([O-])c1ccc(C23C[C@@H]4C[C@@H](CC(O)(C4)C2)C3)cc1,inconclusive: 18%
10,COc1ccccc1C(=O)Nc1cccc(N2CCC(NC3[C@@H]4CC5C[C@H]3CC(O)(C5)C4)CC2)c1 (stereo partly drawn),inconclusive: 11%
11,Cc1ccc(-n2c(SCc3ccccc3)nc3c(c2=O)SCC3)cc1,active: 30%
12,CNc1nc(N2CCC(Cc3nnc(SC)n3C)CC2)nc2c1CCC2,inconclusive: 16%
13,COc1ccc(CNC(=O)c2cc3cc4ccc(OC)cc4nc3s2)cc1,active: 38%
14,CC(C)C1Oc2ccccc2C2CC(c3ccccc3)=NN21 (stereo not drawn),inconclusive: 21%
15,COCCCn1c(SCC(=O)N2CCC(C)CC2)nc2c(sc3ccccc32)c1=O,inactive
16,CCN(CC)C(=O)C(C)N(C#N)c1nc(N(C)C)nc(N(C)C)n1 (stereo not drawn),inconclusive: 14%
17,CN1C[C@@H](NC(=O)CC(C)(C)CC(=O)O)C[C@H]1c1nc(-c2ccc3c(c2)OCO3)no1,inconclusive: 10%
18,CCCN(CCC)c1ncnc2sc(C)cc12,inconclusive: 18%
19,O[C@@H]1C[C@@H](c2nc(-c3ccc(C(F)(F)F)cc3)no2)N(Cc2ccccn2)C1,inconclusive: 13%
20,Cc1cc(C)c(S(=O)(=O)N=C2C=CC(=O)c3ccccc32)cc1C,active: 47%
21,CCOC(=O)c1c(NC(=O)CCCn2nc([N+](=O)[O-])cc2C)sc2c1CCCC2,inconclusive: 14%
